Measured values as given in PubChem BioAssay AID248 (DTP/NCI, 2004).
The list does not hold the whole screen: it gathers tests that were run many times, whatever their T/C, doses with no T/C, and many T/C values between a quarter and a half above the control. Other doses and runs of a compound stand elsewhere. T/C gives the treated animals as a percentage of the vehicle group. Some doses have a count of surviving animals in place of a T/C: the source files T/C as zero there, which appears to mark a toxic dose or a test without result, not a measured value. Some doses without a T/C left all or most animals alive at the check, yet need not have been tolerated: the source hardly ever lists a survival T/C far under the control, and the zero likely stands for such cases as well. Survivors were counted at the toxicity check, usually on the fifth day, unless a day is given; later deaths do not show. Schedules are NCI's codes, taken here to give the interval after Q, in days (D) or hours (H), and the number of doses after X. Some entries hold several experiments; their values stand side by side, smallest first. Some schedules carry Z or #; the key to these is not given. For survival time, the PubChem record calls one and a half times the control and up active, and a quarter to a half above the control has no call in these data; cut-offs in other NCI protocols can differ.

Test system: L1210 leukemia ip in BDF1 mice, survival T/C
Assay: NCI In Vivo Anticancer Drug Screen. Data for tumor model L1210 Leukemia (intraperitoneal) in B6D2F1 (BDF1) mice
Settings: T/C endpoint: mean survival time, higher T/C = longer survival
[1] = dose: 200.0 mg/kg/injection, schedule: Q04DX003 (ip), vehicle: saline with Tween-80
[2] = dose: 300.0 mg/kg/injection, schedule: Q01DX001 (ip), vehicle: saline
[3] = dose: 100.0 mg/kg/injection, schedule: Q01DX009 (ip), vehicle: Klucel (hydroxypropylcellulose) (HPC)
[4] = dose: 400.0 mg/kg/injection, schedule: Q04DX003 (ip), vehicle: Klucel (hydroxypropylcellulose) (HPC)
[5] = dose: 400.0 mg/kg/injection, schedule: Q04DX002 (ip), vehicle: saline with Tween-80
[6] = dose: 400.0 mg/kg/injection, schedule: Q04DX003 (ip), vehicle: saline

For `CC(C)CCCC(C)C1CCC2C3CC=C4CC(C5C(=O)NC(=O)NC5=O)CCC4(C)C3CCC12C` (configuration not stated), which survivor count (dose: 100.0 mg/kg/injection, schedule: Q04DX003 (ip), vehicle: saline with Tween-80) is on record?
The survivor count was 6 of 6.

And the survivor count [1]?
The survivor count was 6 of 6.

`c1ccc([Si](c2ccccc2)(c2ccccc2)c2ccc(-c3ccc([Si](c4ccccc4)(c4ccccc4)c4ccccc4)cc3)cc2)cc1` was tested. Which survivor count (dose: 100.0 mg/kg/injection, schedule: Q01DX001 (ip), vehicle: saline with Tween-80) did it give?
The survivor count was 6 of 6.

For `CCCCC1(C(C)C)C(=O)NC(=O)N(C)C1=O` (configuration not stated), which survivor count [2] is on record?
Its survivor count is 3 of 6.

What does the source list for `CN(CCO)N=Nc1ccccc1C#N`?
survivor count (dose: 6.25 mg/kg/injection, schedule: Q04DX003 (ip), vehicle: other): 6 of 6; survivor count (dose: 12.5 mg/kg/injection, schedule: Q04DX003 (ip), vehicle: other): 6 of 6; survivor count (dose: 25.0 mg/kg/injection, schedule: Q04DX003 (ip), vehicle: other): 6 of 6; survivor count (dose: 50.0 mg/kg/injection, schedule: Q01DX009 (ip), vehicle: other): 1 of 6; survivor count (dose: 50.0 mg/kg/injection, schedule: Q04DX003 (ip), vehicle: other): 6 of 6; survivor count (dose: 100.0 mg/kg/injection, schedule: Q01DX009 (ip), vehicle: other): 1 of 6; survivor count (dose: 100.0 mg/kg/injection, schedule: Q04DX003 (ip), vehicle: other): 6 of 6; survivor count (dose: 200.0 mg/kg/injection, schedule: Q01DX009 (ip), vehicle: other): 0 of 6; survivor count (dose: 200.0 mg/kg/injection, schedule: Q04DX003 (ip), vehicle: other): 5 of 6 and 6 of 6; survivor count (dose: 400.0 mg/kg/injection, schedule: Q01DX009 (ip), vehicle: other): 0 of 6; survivor count (dose: 400.0 mg/kg/injection, schedule: Q04DX003 (ip), vehicle: other): 5 of 6

Which results are given for `Cc1c(Cl)cccc1NC(=S)NC(=O)/C=C/c1ccccc1`?
survivor count (dose: 200.0 mg/kg/injection, schedule: Q01DX001 (ip), vehicle: saline with Tween-80): 6 of 6; survivor count [1]: 6 of 6

Which results are given for `COC(=O)C1CC(C)(C)N(C)C1(C)C` (configuration not stated)?
survivor count [3]: 2 of 6; survivor count (dose: 400.0 mg/kg/injection, schedule: Q01DX009 (ip), vehicle: Klucel (hydroxypropylcellulose) (HPC)): 0 of 6; survivor count [4]: 0 of 6

For `CCS(=O)(=O)CC(C)O` (configuration not stated), which survivor count (dose: 100.0 mg/kg/injection, schedule: Q04DX002 (ip), vehicle: saline) is on record?
The survivor count was 2 of 3.

And the survivor count (dose: 200.0 mg/kg/injection, schedule: Q04DX002 (ip), vehicle: saline)?
The survivor count was 3 of 3.

What about the survivor count (dose: 400.0 mg/kg/injection, schedule: Q04DX002 (ip), vehicle: saline) of the same compound?
The survivor count was 3 of 3.

What does the source list for `N#CSC/C=C/Cl`?
survivor count (dose: 200.0 mg/kg/injection, schedule: Q01DX009 (ip), vehicle: Klucel (hydroxypropylcellulose) (HPC)): 0 of 6; survivor count [4]: 1 of 6

`O=C(Nc1ccc(C2=NCCN2)cc1)c1ccc(C(=O)Nc2ccc(C3=NCCN3)cc2)nc1` was tested. Which T/C (dose: 4.0 mg/kg/injection, schedule: Q01DX Z (ip), vehicle: saline) did it give?
Its T/C is 130 % of control.

What about the T/C (dose: 8.0 mg/kg/injection, schedule: Q01DX Z (ip), vehicle: saline) of the same compound?
The T/C was 143 % of control.

And the T/C (dose: 30.0 mg/kg/injection, schedule: Q01DX Z (ip), vehicle: carboxymethylcellulose (CMC))?
The T/C was 138 % of control.

What about the survivor count (dose: 120.0 mg/kg/injection, schedule: Q01DX Z (ip), vehicle: carboxymethylcellulose (CMC)) of the same compound?
Its survivor count is 6 of 6.

For `N#C/C(=C\C1CC(Br)CCC1O)C1CCC([N+](=O)[O-])CC1` (configuration not stated), which survivor count [5] is on record?
Its survivor count is 1 of 3.

How did the survivor count [6] turn out when `CN(C)CCCN1c2ccccc2S(=O)c2ccc(Cl)cc21` (configuration not stated) was run?
Its survivor count is 0 of 4.

With `O=C(CCl)Nc1ccc(S(=O)(=O)F)cc1` as the compound, how does the survivor count (dose: 200.0 mg/kg/injection, schedule: Q04DX003 (ip), vehicle: carboxymethylcellulose (CMC)) read?
Its survivor count is 3 of 6.

And the survivor count (dose: 400.0 mg/kg/injection, schedule: Q04DX003 (ip), vehicle: carboxymethylcellulose (CMC))?
The survivor count was 4 of 6.

For `COc1cc(C(=O)N2CCCCCCC2)cc(OC)c1OC`, which survivor count [4] is on record?
Its survivor count is 0 of 3.

`O=C(O)c1cc(Cl)ccc1O` was tested. Which survivor count (dose: 400.0 mg/kg/injection, schedule: Q04DX002 (ip), vehicle: other) did it give?
The survivor count was 3 of 3.

How did the survivor count (dose: 100.0 mg/kg/injection, schedule: Q01DX001 (ip), vehicle: saline) turn out when `O=S(=O)(Nc1cc2c(nc3ccccn32)c2ccccc12)c1ccccc1` was run?
The survivor count was 0 of 6.

What about the survivor count (dose: 200.0 mg/kg/injection, schedule: Q01DX001 (ip), vehicle: saline) of the same compound?
Its survivor count is 0 of 6.

Which survivor count [2] does the source give for `NC1CC=CCC1c1ccc2c(c1)OCO2` (configuration not stated) here?
The survivor count was 0 of 6.

What does the source list for `COc1cccc(/C=N/N=C(N)N)c1`?
survivor count (dose: 120.0 mg/kg/injection, schedule: Q01DX Z (ip), vehicle: saline): 0 of 6; survivor count (dose: 240.0 mg/kg/injection, schedule: Q01DX Z (oral), vehicle: saline): 1 of 6

What does the source list for `CN1C(=O)C/C(=C/[N+](=O)[O-])c2ccccc21`?
survivor count (dose: 200.0 mg/kg/injection, schedule: Q01DX001 (ip), vehicle: carboxymethylcellulose (CMC)): 1 of 4; survivor count (dose: 400.0 mg/kg/injection, schedule: Q01DX001 (ip), vehicle: carboxymethylcellulose (CMC)): 0 of 4

With `CCC1CC[N-]CC1.CCC1CC[N-]CC1.[Cl][Pt+2]([Cl])([Cl])[Cl]` as the compound, how does the survivor count (dose: 50.0 mg/kg/injection, schedule: Q01DX009 (ip), vehicle: saline) read?
Its survivor count is 2 of 6.

What about the survivor count (dose: 50.0 mg/kg/injection, schedule: Q04DX003 (ip), vehicle: saline) of the same compound?
Its survivor count is 4 of 6.

What about the survivor count (dose: 100.0 mg/kg/injection, schedule: Q04DX003 (ip), vehicle: saline) of the same compound?
The survivor count was 2 of 6.

And the survivor count (dose: 200.0 mg/kg/injection, schedule: Q04DX003 (ip), vehicle: saline)?
Its survivor count is 1 of 6.

And the survivor count [6]?
Its survivor count is 0 of 6.

`COc1cc2c3c(c1)-c1c(ccc(OC)c1O)CC3N(C)CC2` (configuration not stated) was tested. Which survivor count (dose: 200.0 mg/kg/injection, schedule: Q04DX003 (ip), vehicle: DMSO) did it give?
Its survivor count is 1 of 5.

And the survivor count (dose: 400.0 mg/kg/injection, schedule: Q04DX003 (ip), vehicle: DMSO)?
The survivor count was 0 of 5.

With `CCOc1ccc(NC(=O)c2cc(C(=O)O)c(C(=O)Nc3ccc(OCC)cc3)cc2C(=O)O)cc1` as the compound, how does the survivor count (dose: 200.0 mg/kg/injection, schedule: Q04DX002 (ip), vehicle: Klucel (hydroxypropylcellulose) (HPC)) read?
Its survivor count is 1 of 3.

`NNCCO` was tested. Which survivor count (dose: 100.0 mg/kg/injection, schedule: Q01DX009 (ip), vehicle: saline with Tween-80) did it give?
Its survivor count is 0 of 3.

What about the survivor count (dose: 100.0 mg/kg/injection, schedule: Q04DX002 (ip), vehicle: saline with Tween-80) of the same compound?
Its survivor count is 1 of 3.

What about the survivor count (dose: 200.0 mg/kg/injection, schedule: Q04DX002 (ip), vehicle: saline with Tween-80) of the same compound?
Its survivor count is 0 of 3.

What about the survivor count [5] of the same compound?
The survivor count was 0 of 3.

How did the survivor count (dose: 150.0 mg/kg/injection, schedule: Q01DX001 (ip), vehicle: carboxymethylcellulose (CMC)) turn out when `Cc1nsc(N(NC(=O)c2ccccc2)C(=O)c2ccccc2)n1` was run?
The survivor count was 1 of 6.

What about the survivor count (dose: 300.0 mg/kg/injection, schedule: Q01DX001 (ip), vehicle: carboxymethylcellulose (CMC)) of the same compound?
Its survivor count is 0 of 6.

How did the T/C (dose: 0.25 mg/kg/injection, schedule: Q01DX015 (ip), vehicle: carboxymethylcellulose (CMC)) turn out when `O=C(O)c1ccc(N=NSc2ncnc3nc[nH]c23)cc1O` was run?
Its T/C is 129 % of control.

What about the T/C (dose: 0.5 mg/kg/injection, schedule: Q01DX015 (ip), vehicle: carboxymethylcellulose (CMC)) of the same compound?
Its T/C is 137 % of control.

And the T/C (dose: 1.0 mg/kg/injection, schedule: Q01DX015 (ip), vehicle: carboxymethylcellulose (CMC))?
Its T/C is 141 % of control.

What about the T/C (dose: 2.0 mg/kg/injection, schedule: Q01DX015 (ip), vehicle: carboxymethylcellulose (CMC)) of the same compound?
Its T/C is 130 % of control.

And the survivor count (dose: 80.0 mg/kg/injection, schedule: Q01DX015 (ip), vehicle: carboxymethylcellulose (CMC))?
Its survivor count is 6 of 6.

And the survivor count (dose: 160.0 mg/kg/injection, schedule: Q01DX015 (ip), vehicle: carboxymethylcellulose (CMC))?
Its survivor count is 4 of 6.

How did the survivor count (dose: 400.0 mg/kg/injection, schedule: Q04DX003 (ip), vehicle: saline with Tween-80) turn out when `O/N=C1/CCN2CCCc3cccc1c32` was run?
Its survivor count is 1 of 6.

`Clc1ncnc2c1nnn2C1CCCC1` was tested. Which survivor count (dose: 400.0 mg/kg/injection, schedule: Q01DX001 (ip), vehicle: saline) did it give?
The survivor count was 2 of 6.

For `C1=CC23C4CCC2C2C4C4C(=C1)C3C2N1CCCCC41` (configuration not stated), which survivor count [3] is on record?
Its survivor count is 1 of 6.

What about the survivor count (dose: 200.0 mg/kg/injection, schedule: Q04DX003 (ip), vehicle: Klucel (hydroxypropylcellulose) (HPC)) of the same compound?
Its survivor count is 1 of 6.

What about the survivor count [4] of the same compound?
The survivor count was 0 of 6.
